No constants are given. Whether binding was seen depends on the method and setting.

Protein sequences, listed by entry. Tags and fused reporters are not part of them. Lines headed by an entry give the natural chain unless they say otherwise; changes in a name come on top.
UniProt O95229: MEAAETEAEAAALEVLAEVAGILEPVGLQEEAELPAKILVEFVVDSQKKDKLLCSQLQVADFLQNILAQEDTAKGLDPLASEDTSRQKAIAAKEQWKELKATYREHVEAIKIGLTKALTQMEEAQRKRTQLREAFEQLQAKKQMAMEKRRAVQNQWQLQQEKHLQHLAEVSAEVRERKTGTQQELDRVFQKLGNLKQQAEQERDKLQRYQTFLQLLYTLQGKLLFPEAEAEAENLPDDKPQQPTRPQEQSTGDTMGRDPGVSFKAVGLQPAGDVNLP
UniProt Q9H081: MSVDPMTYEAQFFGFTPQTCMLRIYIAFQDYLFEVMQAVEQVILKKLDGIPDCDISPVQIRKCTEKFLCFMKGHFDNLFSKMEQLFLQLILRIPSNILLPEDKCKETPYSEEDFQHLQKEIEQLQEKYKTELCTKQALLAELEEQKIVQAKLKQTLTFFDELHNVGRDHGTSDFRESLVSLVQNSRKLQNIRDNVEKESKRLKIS
UniProt Q6P1K2: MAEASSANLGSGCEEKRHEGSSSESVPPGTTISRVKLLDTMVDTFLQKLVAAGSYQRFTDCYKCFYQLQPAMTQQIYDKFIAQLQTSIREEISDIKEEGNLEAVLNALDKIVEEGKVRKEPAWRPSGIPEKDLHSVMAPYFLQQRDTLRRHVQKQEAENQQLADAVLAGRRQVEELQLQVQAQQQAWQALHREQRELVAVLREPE
UniProt Q9H410: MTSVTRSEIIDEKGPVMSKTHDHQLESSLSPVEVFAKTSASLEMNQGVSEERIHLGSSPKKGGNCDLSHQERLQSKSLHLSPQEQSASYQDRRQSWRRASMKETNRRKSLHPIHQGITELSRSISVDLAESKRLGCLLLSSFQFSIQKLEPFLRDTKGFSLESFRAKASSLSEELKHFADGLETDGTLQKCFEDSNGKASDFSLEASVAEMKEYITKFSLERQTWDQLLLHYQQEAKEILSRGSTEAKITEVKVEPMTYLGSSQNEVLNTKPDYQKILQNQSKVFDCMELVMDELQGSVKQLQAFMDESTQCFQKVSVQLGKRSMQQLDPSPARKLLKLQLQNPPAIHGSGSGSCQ
UniProt Q96IY1: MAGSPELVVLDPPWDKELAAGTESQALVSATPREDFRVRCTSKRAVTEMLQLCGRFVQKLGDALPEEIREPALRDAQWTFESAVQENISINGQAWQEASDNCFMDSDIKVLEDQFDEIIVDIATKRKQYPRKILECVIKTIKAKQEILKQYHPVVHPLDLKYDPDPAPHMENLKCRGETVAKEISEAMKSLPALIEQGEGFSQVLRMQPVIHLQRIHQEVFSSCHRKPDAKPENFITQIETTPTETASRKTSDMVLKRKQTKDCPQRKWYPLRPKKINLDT
UniProt O14777: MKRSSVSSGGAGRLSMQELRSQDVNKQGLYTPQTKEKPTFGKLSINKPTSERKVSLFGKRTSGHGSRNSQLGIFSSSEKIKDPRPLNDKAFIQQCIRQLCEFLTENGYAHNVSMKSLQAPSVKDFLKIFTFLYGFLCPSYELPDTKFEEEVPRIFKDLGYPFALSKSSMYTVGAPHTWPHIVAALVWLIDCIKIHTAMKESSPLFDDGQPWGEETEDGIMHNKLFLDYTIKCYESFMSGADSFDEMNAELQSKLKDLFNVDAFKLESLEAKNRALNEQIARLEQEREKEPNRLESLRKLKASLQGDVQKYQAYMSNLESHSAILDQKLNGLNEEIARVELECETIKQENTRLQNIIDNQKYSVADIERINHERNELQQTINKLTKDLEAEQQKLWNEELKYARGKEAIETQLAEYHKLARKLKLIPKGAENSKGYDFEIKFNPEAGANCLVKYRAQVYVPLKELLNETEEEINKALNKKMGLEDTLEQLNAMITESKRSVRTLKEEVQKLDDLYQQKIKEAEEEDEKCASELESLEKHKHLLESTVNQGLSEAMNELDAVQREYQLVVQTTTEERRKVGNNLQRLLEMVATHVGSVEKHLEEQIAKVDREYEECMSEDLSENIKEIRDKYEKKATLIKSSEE

Consider 3 molecules from publication PMC11189301, “Structure of the human outer kinetochore KMN network complex” (Nature Structural & Molecular Biology, 2024).

Assay [1] has as its target KNL1 complex (Knl1 residues 1870–2342 with ZWINT) (human) (UniProt Q8NG31+O95229). Put plainly: cryo-EM structure; NDC80C, MIS12C and KNL1C mixed 1:1:1 and run on Superose 6 in 20 mM HEPES pH 8.0, 80 mM NaCl, 1 mM MgCl2, 1 mM TCEP; about 1 mg/ml on UltrAuFoil grids; 3.0 Å (MIS12C heads 3.8 Å); both purified.
Assay [2] deals with MIS12 complex with Nsl1 E219R V220R F221A and Dsn1 P332W R334A L336R combined (Homo sapiens) (UniProt Q9H081+Q6P1K2+Q9H410+Q96IY1). Put plainly: SEC; MIS12C variant mixed with NDC80C at 4 µM each; 20 mM HEPES pH 7.8, 150 mM NaCl, 0.5 mM TCEP; Superose 6; fractions on SDS-PAGE; both purified.
For assay [3], the target named is MIS12 complex with Nsl1 truncated at the C terminus (Nsl1 1–264; residues 265–281 deleted) (Homo sapiens) (UniProt Q9H081+Q6P1K2+Q9H410+Q96IY1). The assay is described as follows: SEC; MIS12C or MIS12C^Nsl1ΔC mixed with Knl1 2131–2337 or its mutants at 4 µM each; 20 mM HEPES pH 7.8, 150 mM NaCl, 0.5 mM TCEP; Superose 6; fractions on SDS-PAGE; both purified.
The target of assay [4] is MIS12 complex (Mis12, Pmf1, Dsn1, Nsl1), wild type, full length (Homo sapiens) (UniProt Q9H081+Q6P1K2+Q9H410+Q96IY1). The assay is described as follows: ITC; peptide in the syringe titrated into the MIS12C variant in the cell; 20 °C; 20 mM HEPES pH 7.5, 100 mM NaCl, 1 mM TCEP; single-site binding model; duplicate or triplicate; both purified.

With “NDC80 complex (Ndc80, Nuf2, Spc24, Spc25), full length, unmodified (from UniProt O14777 1-642; Q9BZD4 1-464; Q8NBT2 1-197; Q9HBM1 1-224)”, the binding result is reported as “no binding” in assay [1] and “no binding (tested: 4 µM each)” in assay [2].

B1: Knl1 residues 2131–2337, mut2 (S2270R S2272W) (domain or fragment, H. sapiens, UniProt Q8NG31 2131-2337, looked up)
chain: SLSEWDVVEWSDDQAVFTFVYDTIQLTITFEESVVGFPFLDKRYRKIVDVNFQSLLDEDQAPPSSLLVHKLIFQYVEEKESWKKTCTTQHQLPKMLEEFSLVVHHCRLLGEEIEYLKRWGPNYNLMNIDINNNELRLLFRSWAAFAKFEITLFLSAYYPSVPLPSTIQNHVGNTSQDDIATILSKVPLENNYLKNVVKQIYQDLFQD
notes: Knl1, human, residues 2131-2337, RWD-C surface mutant 2; also called Knl1^mut2; KNL1^mut2; source: E. coli BL21 (DE3), purified (Ni-NTA, reverse IMAC, Superdex 75); not shown: His6, N-terminal, cleaved
As to B1, in assay [3], the binding result is listed as “no binding (tested: 4 µM each)”.

B2: Dsn1^92–113 peptide with W96A R97A R98A (peptide)
peptide: RRQSAAAASMKETNRRKSLHPIAW
modifications: N-terminal acetylation; C-terminal amidation
In the case of B2, the binding result in assay [4] is “no binding”.
